PubChem BioAssay AID652259 – Drosophila RNAi Screening Center – 2013
Screen: 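Identify new Wingless signalling regulators in fly cells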 (primary screen). Cell system: Drosophila clone 8 imaginal disc epithelial cells. Knock-down reagent: long dsRNA against Drosophila genes. Challenge: pathway stimulated by co-transfected Wingless expression plasmid. Measured: 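Dual luciferase reads per well after Wingless plasmid stimulation: reporter firefly light and Renilla control light; activity is firefly divided by Renilla, a ratio not deposited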. Reading the numbers: firefly reporter light: higher = more Wg reporter light, before normalisation; Renilla control light: higher = more transfected or surviving cells. Rule for the call: 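a knock-down is a candidate when at least two out of four statistical tests show it departing from its plate mean; one test alone signals a weak candidate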. Meaning of the calls: active = candidate regulator (raises or lowers reporter); inactive = not a candidate.
The deposit covers about 22,000 reagents; below is an unselected part of those with a known target gene and a result. Of all reagents, 233 (1.1%) were called active. 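Light values are raw, unnormalised plate reads; the ratio scores behind the reporter calls were not deposited.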 The numbers tell different reagents against one gene apart. A plus sign joins genes that one reagent is predicted to hit. The record does not give: the amount of reagent, the time to read-out, the dose of the treatment.

no.	predicted target	dsRNA no.	reporter change call, replicate 1	firefly reporter light, replicate 1	firefly reporter light, replicate 2	Renilla control light, replicate 1	Renilla control light, replicate 2	call
1	CG14406	1		26194		8605		inactive
2	CR40282 (pseudo)	1		5707		2106		inactive
3	GCC185 (GRIP and coiled-coil domain containing 185 kDa)	1		17684		5013		inactive
4	omd (oocyte maintenance defects)	1		5625		2712		inactive
5	Dus2 (Dihydrouridine synthase 2)	1		2288	6336	1008	2613	inactive
6	Theg (Testicular haploid expressed gene)	1		2880	4196	1057	1795	inactive
7	Mi-2 + Su(Tpl)	1		4323		1270		inactive
8	Polr2A (RNA polymerase II subunit A)	1		2386	9856	544	2219	inactive
9	c(3)G (crossover suppressor on 3 of Gowen)	1		3084	5332	1766	1461	inactive
10	CG15394	1		2497	5133	938	1817	inactive
11	CG31550	1		12049		3289		inactive
12	CG31550	2		6912		2779		inactive
13	syd (sunday driver)	1		6676		2528		inactive
14	santa-maria	1		15078		6825		inactive
15	santa-maria	2		10240		4343		inactive
16	ACXB (Adenylyl cyclase X B)	1		2243	4998	841	2482	inactive
17	mRpL17 (mitochondrial ribosomal protein L17)	1		6573		2736		inactive
18	CG40006	1		12304		8022		inactive
19	CG40006	2		20228		11894		inactive
20	CG40006	3		15962		9264		inactive
21	CG40006	4		18103		10193		inactive
22	CG15534	1		5357		2512		inactive
23	CG15345 (retired record)	1		23635	6.46e5	14000	3.29e5	inactive
24	CG15345 (retired record)	2		4.99e5	5.14e5	1.78e5	1.96e5	inactive
25	Odc1 (Ornithine decarboxylase 1)	1		8448		3009		inactive
26	BOD1 (Biorientation Defective 1)	1	Wg reporter activity raised	14243	5011	1425	912	inactive
27	gammaSnap2 (gamma Soluble NSF attachment protein 2)	1		16621		4240		inactive
28	Graf (GTPase regulator associated with FAK)	1		1940	4305	800	1617	inactive
29	CG6893	1		5835		3136		inactive
30	Or7a (Odorant receptor 7a)	1		18532		10000		inactive
31	Cpr47Eb (Cuticular protein 47Eb)	1		6826		2657		inactive
32	CG31883	1		15845		2844		inactive
33	CG31730	1		20322		9655		inactive
34	Qsox4 (Quiescin sulfhydryl oxidase 4)	1		2426	4396	1305	1731	inactive
35	Cyp4s3 (Cytochrome P450 4s3)	1		29811		14069		inactive
36	Cyp4s3 (Cytochrome P450 4s3)	2		3.77e5	6.15e5	1.36e5	2.34e5	inactive
37	CG30192	1		16516		7721		inactive
38	fne (found in neurons)	1		12612		6336		inactive
39	fne (found in neurons)	2		5.24e5	5.96e5	2.13e5	2.79e5	inactive
40	CG17283	1		11577		3705		inactive
41	CSN5 (COP9 signalosome subunit 5)	1		5394	10704	2029	4442	inactive
42	CSN5 (COP9 signalosome subunit 5)	2		7.79e5	7.51e5	3.35e5	3.46e5	inactive
43	CG32588	1		4.76e5	3.83e5	1.37e5	1.31e5	inactive
44	Csk (C-terminal Src kinase)	1		2444		1092		inactive
45	Csk (C-terminal Src kinase)	2		3843		1376		inactive
46	CG12516	1		8992		3740		inactive
47	VepD (Ventrally-expressed protein D)	1		4.81e5	3.90e5	2.06e5	1.96e5	inactive
48	Tdh (L-threonine dehydrogenase)	1		5376		2400		inactive
49	CG7272	1		8427		3104		inactive
50	CG1632	1		3409		973		inactive
51	CG1632	2		20251		11563		inactive
52	CG2875	1		2844	7241	1125	2837	inactive
53	Coq2 (Coenzyme Q biosynthesis protein 2)	1		19852		6576		inactive
54	Coq2 (Coenzyme Q biosynthesis protein 2)	2		6.35e5	6.94e5	4.59e5	3.31e5	inactive
55	CG12289	1		7648		3904		inactive
56	TBC1D23 (TBC1 domain family member 23)	1		2917	7815	1021	2564	inactive
57	CG31816	1		19415		10020		inactive
58	CG31741	1		1581	4331	950	1922	inactive
59	CG32269 + CG32270	1		6070		2739		inactive
60	hep (hemipterous)	1		18379		8330		inactive
61	hep (hemipterous)	2		13597		6914		inactive
62	CG6686	1		13298		1953		inactive
63	CG32213 + CG12519 + 825-Oak + 1 more	1		3600		1650		inactive
64	CG14903	1		22023		4433		inactive
65	Atat (alpha-tubulin acetylase)	1		2835		1137		inactive
66	CG32206	1		4635		1988		inactive
67	CG32206	2		12041		4480		inactive
68	CG32206	3		10601		3856		inactive
69	CG32206	4		15883		6044		inactive
70	CG32206	5		14057		4353		inactive
71	CG11085	1		26020		14376		inactive
72	CG11085	2		6.34e5	6.12e5	1.60e5	1.79e5	inactive
73	Madm (MLF1-adaptor molecule)	1		14528		4715		inactive
74	CG33128	1		3616	8608	1623	3994	inactive
75	lin-52	1		27361		10107		inactive
76	CG31832	1		7.75e5	7.40e5	3.10e5	3.02e5	inactive
77	CG10041	1		17673		4288		inactive
78	CG11906	1		7665		2877		inactive
79	Seipin	1		12640		12629		inactive
80	Obp57e (Odorant-binding protein 57e)	1		25640		17372		inactive
81	CG11044	1		12605		2432		inactive
82	spn-B (spindle B)	1		11763		3504		inactive
83	CG14273	1		3322	7899	1116	4464	inactive
84	Trf2 (TATA box binding protein-related factor 2)	1	Wg reporter activity raised	1.57e5		8176		active
85	CG14262	1		5906		4531		inactive
86	CG34404	1		15782		4291		inactive
87	CG34404	2		5527		1905		inactive
88	Nlg3 (Neuroligin 3)	1		4411		646		inactive
89	Nlg3 (Neuroligin 3)	2		10577		2514		inactive
90	Nlg3 (Neuroligin 3)	3		10716		2370		inactive
91	Nlg3 (Neuroligin 3)	4	Wg reporter activity lowered	4738		3845		active
92	CG13003	1		20112		9287		inactive
93	sov (small ovary)	1		2243	6587	661	2797	inactive
